According to paper PMC2708071 (Journal of medicinal chemistry, 2009):

Tested on: 50 kinases
Experiment: Millipore kinase profiler, panel of 50 kinases
Type: biochemical
Settings: inhibitor 10 nM

CN[C@@H]1C[C@H]2O[C@@](C)([C@@H]1OC)n1c3ccccc3c3c4c(c5c6ccccc6n2c5c31)C(=O)NC4 [staurosporine]
number of the 50 kinases inhibited to below 85% activity (greater than 15% inhibition): more than half
